# Source: PubChem BioAssay AID1259405 (NCATS, 2018)
# Screen: 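Knock-downs that lift recombinant protein yield in hamster ovary cells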 (primary screen)
# System: Chinese hamster CHO-K1 ovary cells with stable secreted eGFP expression
# Knock-down reagent: single siRNA against mouse genes, 0.8 pmol siRNA per well (2 µl of 400 nM stock)
# Time to read-out: 3 days
# Read-out: 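Per-well intracellular GFP measured by laser scanning cytometry, plus viability from ATP luminescence, each relative to plate median of non-targeting control wells, in %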
# Scale: GFP, % of control: higher = more GFP per well, higher productivity; viability (ATP), % of control: higher = more viable cells (more ATP)
# Hit rule: 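Called active when intracellular GFP, relative to negative control, is at or above 120%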
# In all, the deposit lists about 50,000 reagents; below is a part drawn at random. Over the whole deposit, about 4,000 (8%) got an active call. 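Mouse siRNA library applied to hamster cells; one well for each siRNA.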 The numbers tell different reagents against one gene apart.
gene symbol,reagent no.,"GFP, % of control","viability (ATP), % of control",outcome
Ptprg (protein tyrosine phosphatase receptor type G),1,66.2,78.3,inactive
Ptprg (protein tyrosine phosphatase receptor type G),2,54.5,38.3,inactive
Ptprg (protein tyrosine phosphatase receptor type G),3,94.4,79.4,inactive
Maml3 (mastermind like transcriptional coactivator 3),1,41.7,33.1,inactive
Maml3 (mastermind like transcriptional coactivator 3),2,121,68.7,active
Maml3 (mastermind like transcriptional coactivator 3),3,154,114,active
Acy3 (aminoacylase 3),1,78.7,75.5,inactive
Acy3 (aminoacylase 3),2,116,115,inactive
"Fcamr (Fc receptor, IgA, IgM, high affinity)",1,69.1,63.3,inactive
"Fcamr (Fc receptor, IgA, IgM, high affinity)",2,68.3,56.6,inactive
"Fcamr (Fc receptor, IgA, IgM, high affinity)",3,75.6,64.2,inactive
"Xpnpep1 (X-prolyl aminopeptidase (aminopeptidase P) 1, soluble)",1,53.9,48.4,inactive
"Xpnpep1 (X-prolyl aminopeptidase (aminopeptidase P) 1, soluble)",2,48.9,39.8,inactive
"Xpnpep1 (X-prolyl aminopeptidase (aminopeptidase P) 1, soluble)",3,84.9,79.6,inactive
Rpp30 (ribonuclease P/MRP 30 subunit),1,67.3,71.3,inactive
Rpp30 (ribonuclease P/MRP 30 subunit),2,53.9,64,inactive
Rpp30 (ribonuclease P/MRP 30 subunit),3,56.8,59,inactive
"Cyp2b19 (cytochrome P450, family 2, subfamily b, polypeptide 19)",1,70.1,68.4,inactive
"Cyp2b19 (cytochrome P450, family 2, subfamily b, polypeptide 19)",2,50.8,50.3,inactive
"Cyp2b19 (cytochrome P450, family 2, subfamily b, polypeptide 19)",3,95.7,86.7,inactive

Next part (3 carried over from the part before).
gene symbol,reagent no.,"GFP, % of control","viability (ATP), % of control",outcome
"Cyp2b19 (cytochrome P450, family 2, subfamily b, polypeptide 19)",1,70.1,68.4,inactive
"Cyp2b19 (cytochrome P450, family 2, subfamily b, polypeptide 19)",2,50.8,50.3,inactive
"Cyp2b19 (cytochrome P450, family 2, subfamily b, polypeptide 19)",3,95.7,86.7,inactive
Or51f5 (olfactory receptor family 51 subfamily F member 5),1,57.1,42.2,inactive
Or51f5 (olfactory receptor family 51 subfamily F member 5),2,81.8,68.6,inactive
Or51f5 (olfactory receptor family 51 subfamily F member 5),3,109,119,inactive
Txndc15 (thioredoxin domain containing 15),1,50.4,44.8,inactive
Txndc15 (thioredoxin domain containing 15),2,25.6,40.7,inactive
Txndc15 (thioredoxin domain containing 15),3,61.7,63.9,inactive
Or51g1 (olfactory receptor family 51 subfamily G member 1),1,40.6,66.9,inactive
Or51g1 (olfactory receptor family 51 subfamily G member 1),2,69.8,79.3,inactive
Or51g1 (olfactory receptor family 51 subfamily G member 1),3,88.1,91.4,inactive
Tril (TLR4 interactor with leucine-rich repeats),1,115,142,inactive
Tril (TLR4 interactor with leucine-rich repeats),2,101,103,inactive
Tril (TLR4 interactor with leucine-rich repeats),3,46.2,31.6,inactive
Cdhr1 (cadherin-related family member 1),1,64.7,65.5,inactive
Cdhr1 (cadherin-related family member 1),2,64.3,65.9,inactive
